According to paper doi:10.1101/2022.11.06.515368:
These are yes or no findings as the source states them, for the method shown. Binding seen in cells or lysates may run through a third protein. Some results given as binding are weak or reduced against the parent protein; the word gives no strength. For some of these results: Sequences can lack the tags named with a protein. Blank lines part the entries; values can stand above or below the substance they belong to.

By UniProt entry, the sequences of proteins in these tests, tags left out.
UniProt O95071: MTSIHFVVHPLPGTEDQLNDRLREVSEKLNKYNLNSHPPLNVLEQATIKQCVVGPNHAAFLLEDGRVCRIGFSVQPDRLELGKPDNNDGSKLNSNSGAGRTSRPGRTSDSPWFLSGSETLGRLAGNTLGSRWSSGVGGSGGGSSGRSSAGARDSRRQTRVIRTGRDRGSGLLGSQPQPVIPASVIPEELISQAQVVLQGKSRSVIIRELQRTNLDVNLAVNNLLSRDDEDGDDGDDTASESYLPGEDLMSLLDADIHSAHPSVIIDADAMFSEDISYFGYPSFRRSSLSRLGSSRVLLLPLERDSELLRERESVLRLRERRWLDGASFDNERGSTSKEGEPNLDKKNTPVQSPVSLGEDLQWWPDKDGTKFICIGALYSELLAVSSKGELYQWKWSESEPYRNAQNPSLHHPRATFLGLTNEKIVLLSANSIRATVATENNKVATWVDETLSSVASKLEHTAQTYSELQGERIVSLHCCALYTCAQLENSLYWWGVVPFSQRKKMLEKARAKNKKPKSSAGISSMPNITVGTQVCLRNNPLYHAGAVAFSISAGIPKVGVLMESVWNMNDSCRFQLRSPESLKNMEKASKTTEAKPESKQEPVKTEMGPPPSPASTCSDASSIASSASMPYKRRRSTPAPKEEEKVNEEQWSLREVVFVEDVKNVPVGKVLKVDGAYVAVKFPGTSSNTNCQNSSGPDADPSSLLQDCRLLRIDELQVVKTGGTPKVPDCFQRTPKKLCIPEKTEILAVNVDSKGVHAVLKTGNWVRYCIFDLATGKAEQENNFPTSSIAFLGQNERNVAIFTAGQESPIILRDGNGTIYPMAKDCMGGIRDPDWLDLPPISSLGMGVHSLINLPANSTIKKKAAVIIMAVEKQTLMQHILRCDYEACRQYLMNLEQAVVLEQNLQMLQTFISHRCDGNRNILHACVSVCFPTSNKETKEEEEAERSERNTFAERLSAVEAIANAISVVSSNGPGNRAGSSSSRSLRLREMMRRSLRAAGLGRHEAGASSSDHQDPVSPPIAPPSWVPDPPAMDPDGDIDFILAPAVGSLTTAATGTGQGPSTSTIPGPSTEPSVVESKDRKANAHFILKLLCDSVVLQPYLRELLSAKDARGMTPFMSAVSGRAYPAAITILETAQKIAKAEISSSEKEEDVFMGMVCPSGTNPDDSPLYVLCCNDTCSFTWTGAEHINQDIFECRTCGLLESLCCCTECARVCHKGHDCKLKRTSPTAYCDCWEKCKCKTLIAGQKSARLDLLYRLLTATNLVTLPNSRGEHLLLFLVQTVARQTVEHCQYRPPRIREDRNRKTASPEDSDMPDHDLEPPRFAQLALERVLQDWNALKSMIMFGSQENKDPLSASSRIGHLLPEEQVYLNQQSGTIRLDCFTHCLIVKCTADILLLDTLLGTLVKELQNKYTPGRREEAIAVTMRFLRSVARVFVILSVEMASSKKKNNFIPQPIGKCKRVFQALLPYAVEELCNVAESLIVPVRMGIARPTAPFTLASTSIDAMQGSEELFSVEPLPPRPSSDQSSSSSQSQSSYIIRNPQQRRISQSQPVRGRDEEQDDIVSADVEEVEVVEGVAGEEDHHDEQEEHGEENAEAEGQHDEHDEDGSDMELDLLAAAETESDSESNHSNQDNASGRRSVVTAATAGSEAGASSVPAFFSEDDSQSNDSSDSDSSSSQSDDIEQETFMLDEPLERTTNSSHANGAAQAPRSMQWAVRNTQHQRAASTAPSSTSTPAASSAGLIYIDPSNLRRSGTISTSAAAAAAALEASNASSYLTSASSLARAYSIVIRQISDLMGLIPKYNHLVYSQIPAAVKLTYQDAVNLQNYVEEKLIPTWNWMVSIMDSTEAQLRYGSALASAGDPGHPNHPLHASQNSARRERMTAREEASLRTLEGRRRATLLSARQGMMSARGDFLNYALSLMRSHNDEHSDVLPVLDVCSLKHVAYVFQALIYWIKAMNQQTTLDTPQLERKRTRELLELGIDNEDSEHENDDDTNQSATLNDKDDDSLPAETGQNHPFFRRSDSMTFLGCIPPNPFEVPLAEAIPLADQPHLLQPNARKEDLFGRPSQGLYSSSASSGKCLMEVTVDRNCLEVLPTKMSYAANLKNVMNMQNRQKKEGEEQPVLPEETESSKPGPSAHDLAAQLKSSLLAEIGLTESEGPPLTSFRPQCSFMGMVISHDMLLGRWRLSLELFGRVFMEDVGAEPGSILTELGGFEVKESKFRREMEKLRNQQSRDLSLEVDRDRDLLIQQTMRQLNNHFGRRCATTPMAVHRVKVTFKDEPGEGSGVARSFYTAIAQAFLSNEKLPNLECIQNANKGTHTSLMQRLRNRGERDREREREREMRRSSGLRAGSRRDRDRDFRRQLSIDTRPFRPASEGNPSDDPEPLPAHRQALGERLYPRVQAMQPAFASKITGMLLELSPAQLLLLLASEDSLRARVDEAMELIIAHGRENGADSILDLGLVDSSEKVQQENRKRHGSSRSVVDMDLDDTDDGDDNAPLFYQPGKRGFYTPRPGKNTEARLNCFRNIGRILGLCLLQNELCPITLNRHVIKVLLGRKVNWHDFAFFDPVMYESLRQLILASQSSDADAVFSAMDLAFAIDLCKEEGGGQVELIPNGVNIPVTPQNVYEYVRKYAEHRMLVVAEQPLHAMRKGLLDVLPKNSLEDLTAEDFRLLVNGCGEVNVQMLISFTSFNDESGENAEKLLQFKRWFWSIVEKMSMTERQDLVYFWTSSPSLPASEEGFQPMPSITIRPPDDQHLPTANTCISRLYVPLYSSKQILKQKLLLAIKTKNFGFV
UniProt Q96EZ8: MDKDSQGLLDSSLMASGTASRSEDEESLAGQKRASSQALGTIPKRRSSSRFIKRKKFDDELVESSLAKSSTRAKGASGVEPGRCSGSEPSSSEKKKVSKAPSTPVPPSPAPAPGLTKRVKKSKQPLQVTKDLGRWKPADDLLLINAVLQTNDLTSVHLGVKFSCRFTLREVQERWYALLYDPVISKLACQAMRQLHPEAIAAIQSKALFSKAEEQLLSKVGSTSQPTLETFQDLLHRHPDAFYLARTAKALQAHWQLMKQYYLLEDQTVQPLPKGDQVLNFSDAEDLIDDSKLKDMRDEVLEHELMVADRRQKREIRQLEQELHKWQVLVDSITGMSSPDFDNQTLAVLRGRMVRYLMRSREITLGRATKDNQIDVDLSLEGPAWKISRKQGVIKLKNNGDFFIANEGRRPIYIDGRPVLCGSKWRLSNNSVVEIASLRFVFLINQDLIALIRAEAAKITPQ
UniProt O00139: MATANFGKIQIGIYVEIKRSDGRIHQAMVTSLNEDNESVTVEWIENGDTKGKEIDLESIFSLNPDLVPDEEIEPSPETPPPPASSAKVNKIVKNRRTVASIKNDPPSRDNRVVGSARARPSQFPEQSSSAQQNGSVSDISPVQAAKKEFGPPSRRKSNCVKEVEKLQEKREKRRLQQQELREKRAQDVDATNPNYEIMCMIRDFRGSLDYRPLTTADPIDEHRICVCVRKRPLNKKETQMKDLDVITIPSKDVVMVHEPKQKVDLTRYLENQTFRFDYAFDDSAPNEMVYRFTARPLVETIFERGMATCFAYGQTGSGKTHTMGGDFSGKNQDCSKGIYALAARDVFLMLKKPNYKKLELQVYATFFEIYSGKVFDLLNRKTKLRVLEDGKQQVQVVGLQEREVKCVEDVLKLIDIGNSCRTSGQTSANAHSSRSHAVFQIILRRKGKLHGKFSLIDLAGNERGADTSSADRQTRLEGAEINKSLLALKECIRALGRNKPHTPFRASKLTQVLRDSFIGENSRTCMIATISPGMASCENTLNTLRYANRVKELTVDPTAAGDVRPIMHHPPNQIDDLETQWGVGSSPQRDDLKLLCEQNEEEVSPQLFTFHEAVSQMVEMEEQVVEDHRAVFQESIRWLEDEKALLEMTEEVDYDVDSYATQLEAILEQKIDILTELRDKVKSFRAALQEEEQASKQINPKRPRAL
UniProt P01106: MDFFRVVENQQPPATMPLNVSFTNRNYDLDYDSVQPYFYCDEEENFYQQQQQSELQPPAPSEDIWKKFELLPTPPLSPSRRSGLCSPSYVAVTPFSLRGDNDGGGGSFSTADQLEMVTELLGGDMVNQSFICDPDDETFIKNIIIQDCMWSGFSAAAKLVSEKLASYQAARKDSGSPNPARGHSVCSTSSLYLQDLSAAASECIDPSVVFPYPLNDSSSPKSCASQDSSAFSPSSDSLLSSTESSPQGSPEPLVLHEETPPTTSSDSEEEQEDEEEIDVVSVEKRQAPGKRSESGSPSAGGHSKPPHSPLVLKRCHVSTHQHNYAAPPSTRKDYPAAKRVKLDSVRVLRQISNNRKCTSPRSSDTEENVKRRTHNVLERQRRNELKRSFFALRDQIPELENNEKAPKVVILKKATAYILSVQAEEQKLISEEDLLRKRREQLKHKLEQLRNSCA

What was measured:
Test in all cases: co-IP
[1] = target: endogenous UBR5 in hESCs (human (endogenous in hESCs)) (UniProt O95071)
[2] = target: endogenously FLAG-tagged UBR5 (human) (UniProt O95071)
[3] = target: T1, FLAG-tagged CCDC85B (UniProt Q15834)
T1 sequence: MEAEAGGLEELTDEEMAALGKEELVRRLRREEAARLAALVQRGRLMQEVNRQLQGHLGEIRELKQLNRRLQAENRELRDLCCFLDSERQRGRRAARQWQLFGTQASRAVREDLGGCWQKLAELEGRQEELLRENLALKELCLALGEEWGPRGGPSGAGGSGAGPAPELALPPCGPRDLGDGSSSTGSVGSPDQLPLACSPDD

[4] = target: FLAG-tagged MCRS1 (UniProt Q96EZ8)

binding [1]: binds | binding [2]: binds
Substance: KIF2A (from UniProt O00139 1-706)

binding [3]: binds
Substance: MCRS1 (from UniProt Q96EZ8 1-462)

binding [4]: binds
Substance: endogenous c-MYC (from UniProt P01106 1-454)
